Assay results taken from publication PMC2779591.
Results are given in words; binding and its absence hold for the method and conditions named. In cells and extracts the contact can be indirect. Some entries that bind do so weakly or less than the wild type. Where a sequence is shown, tags or fusion partners need not be part of it.

Sequences of proteins named here, by UniProt entry; tags and fusion partners are left off. A change or cut given only in a name is not applied to a line headed by its entry.
UniProt Q04724: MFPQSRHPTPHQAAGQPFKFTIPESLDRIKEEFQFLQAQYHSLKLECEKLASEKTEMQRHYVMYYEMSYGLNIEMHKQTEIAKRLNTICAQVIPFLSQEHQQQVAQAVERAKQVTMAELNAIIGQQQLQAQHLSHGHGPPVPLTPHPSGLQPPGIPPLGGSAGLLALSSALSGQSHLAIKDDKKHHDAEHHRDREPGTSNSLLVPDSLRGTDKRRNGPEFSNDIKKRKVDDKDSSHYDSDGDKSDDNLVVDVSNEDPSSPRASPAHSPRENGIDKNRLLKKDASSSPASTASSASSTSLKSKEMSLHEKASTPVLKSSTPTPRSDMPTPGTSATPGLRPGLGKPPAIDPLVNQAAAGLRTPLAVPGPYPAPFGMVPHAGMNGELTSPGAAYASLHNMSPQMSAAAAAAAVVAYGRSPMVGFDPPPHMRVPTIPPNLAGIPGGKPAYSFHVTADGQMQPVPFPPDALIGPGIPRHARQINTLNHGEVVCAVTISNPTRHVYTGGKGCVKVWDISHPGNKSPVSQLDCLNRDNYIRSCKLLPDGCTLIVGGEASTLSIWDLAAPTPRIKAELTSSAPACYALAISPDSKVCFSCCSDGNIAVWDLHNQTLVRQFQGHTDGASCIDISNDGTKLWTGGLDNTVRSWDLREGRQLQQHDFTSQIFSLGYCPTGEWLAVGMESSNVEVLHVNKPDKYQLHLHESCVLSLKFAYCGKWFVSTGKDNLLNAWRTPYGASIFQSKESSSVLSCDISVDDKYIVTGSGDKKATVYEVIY

T1: HA epitope-tagged Engrailed1 (UniProt P09065)
T1 sequence: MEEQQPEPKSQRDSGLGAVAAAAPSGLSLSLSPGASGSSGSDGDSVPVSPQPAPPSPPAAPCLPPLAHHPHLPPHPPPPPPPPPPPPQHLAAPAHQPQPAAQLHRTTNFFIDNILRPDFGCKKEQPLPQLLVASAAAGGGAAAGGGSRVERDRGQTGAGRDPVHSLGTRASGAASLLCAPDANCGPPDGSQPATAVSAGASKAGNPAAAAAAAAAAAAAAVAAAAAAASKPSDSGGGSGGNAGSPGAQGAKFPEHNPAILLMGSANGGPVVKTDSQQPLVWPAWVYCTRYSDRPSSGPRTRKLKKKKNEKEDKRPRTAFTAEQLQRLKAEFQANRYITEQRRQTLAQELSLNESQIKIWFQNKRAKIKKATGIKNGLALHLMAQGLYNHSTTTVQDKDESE


What was measured:
[1] = molecular target: T1, HA epitope-tagged Engrailed1; assay: co-IP; HEK293 cells co-transfected with FLAG-Gro/TLE1 (WT or mutant) and HA-En1; lysate immunoprecipitated with anti-HA antibody, Western blot with anti-FLAG or anti-HA
[2] = molecular target: FLAG epitope-tagged Gro/TLE1(S286A) (human) (UniProt Q04724); assay: co-IP; HEK293 cells co-transfected with FLAG-Gro/TLE1 (WT or mutant) and FLAG-Hes1; lysate immunoprecipitated with anti-Gro/TLE1 antibody, Western blot with anti-FLAG
[3] = molecular target: FLAG epitope-tagged Gro/TLE1(S286E) (human) (UniProt Q04724); assay: as above
[4] = molecular target: FLAG epitope-tagged Gro/TLE1(S289A) (human) (UniProt Q04724); assay: as above
[5] = molecular target: FLAG epitope-tagged Gro/TLE1(S289E) (human) (UniProt Q04724); assay: as above
[6] = molecular target: FLAG epitope-tagged Gro/TLE1(S298A) (human) (UniProt Q04724); assay: as above
[7] = molecular target: FLAG epitope-tagged Gro/TLE1(S298E) (human) (UniProt Q04724); assay: as above
[8] = molecular target: FLAG epitope-tagged wild type Gro/TLE1 (human) (UniProt Q04724); assay: as above

| Molecule | binding [1] | also measured |
| --- | --- | --- |
| FLAG epitope-tagged Gro/TLE1(S286A) (from UniProt Q04724 1-770) | binds | – |
| FLAG epitope-tagged Gro/TLE1(S286E) (from UniProt Q04724 1-770) | binds | – |
| FLAG epitope-tagged Gro/TLE1(S289A) (from UniProt Q04724 1-770) | binds | – |
| FLAG epitope-tagged Gro/TLE1(S289E) (from UniProt Q04724 1-770) | binds | – |
| FLAG epitope-tagged Gro/TLE1(S298A) (from UniProt Q04724 1-770) | binds | – |
| FLAG epitope-tagged Gro/TLE1(S298E) (from UniProt Q04724 1-770) | binds | – |
| FLAG epitope-tagged wild type Gro/TLE1 (from UniProt Q04724 1-770) | binds | – |
| FLAG-Hes1 (protein, UniProt Q04666 1-281) MPADIMEKNSSSPVAATPASVNTTPDKPKTASEHRKSSKPIMEKRRRARINESLSQLKTLILDALKKDSSRHSKLEKADILEMTVKHLRNLQRAQMTAALSTDPSVLGKYRAGFSECMNEVTRFLSTCEGVNTEVRTRLLGHLANCMTQINAMTYPGQAHPALQAPPPPPPSGPGGPQHAPFAPPPPLVPIPGGAAPPPGSAPCKLGSQAGEAAKVFGGFQVVPAPDGQFAFLIPNGAFAHSGPVIPVYTSNSGTSVGPNAVSPSSGSSLTADSMWRPWRN | – | binding [2]: binds; binding [3]: binds; binding [4]: binds; binding [5]: binds; binding [6]: binds; binding [7]: binds; binding [8]: binds |
